Laboratory results from patent publication US8415469B2, “Compounds and methods for kinase modulation, and indications therefor” (Plexxikon Inc., priority 2005, dated 2013).

Chains of the proteins cited; added tags and fusions are not shown. A line that says so, or that is headed by a name, gives the form on record, which may keep a tag or linker.
UniProt P10721, with tags, fused parts or gaps: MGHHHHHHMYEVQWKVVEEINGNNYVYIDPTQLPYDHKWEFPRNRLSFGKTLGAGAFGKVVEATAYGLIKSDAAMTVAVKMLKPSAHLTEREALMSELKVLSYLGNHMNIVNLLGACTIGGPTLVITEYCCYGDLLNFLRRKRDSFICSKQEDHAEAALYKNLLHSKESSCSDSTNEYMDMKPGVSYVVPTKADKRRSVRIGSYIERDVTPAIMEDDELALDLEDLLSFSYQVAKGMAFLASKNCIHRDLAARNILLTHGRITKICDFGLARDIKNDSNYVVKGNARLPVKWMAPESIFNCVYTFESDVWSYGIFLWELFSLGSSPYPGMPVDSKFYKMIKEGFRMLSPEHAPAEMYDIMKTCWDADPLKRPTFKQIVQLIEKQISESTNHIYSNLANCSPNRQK

Target: T1, Kit (Homo sapiens, UniProt P10721)
T1 construct: P1332.N6 BI PTP KIT M552-K948-X COD; His6 (N); made in house; host or cells: E. coli (PTP1B co-expressed)
Experiment: AlphaScreen kinase assay, Kit
Type: biochemical
Details: read-out: IC50, activity toward kinase Kit

IC50: ≤ 10 µM
Structure (SMILES): Fc1ccc(-c2cnc3[nH]ccc3c2)cc1 [Compound P-0323]
